From article PMC8274477
Results are given in words; binding and its absence hold for the method and conditions named. Some binding calls cover weakened binding; strength is not graded here.

How the values were obtained:
Experiment in all cases: peptide or protein array; HuProt human proteome microarray; 5 ug/5 ml biotin-labelled LUBAC or OTULIN in solution, 1 h at room temperature; Cy5-streptavidin, scanned at 635 nm; BSA as negative control; hits: Z-score >= 3 and I_(Mean_Ratio) >= 1.4; both purified
[1] = target: T1, RBM42 (human) (UniProt Q9BTD8)
T1 sequence: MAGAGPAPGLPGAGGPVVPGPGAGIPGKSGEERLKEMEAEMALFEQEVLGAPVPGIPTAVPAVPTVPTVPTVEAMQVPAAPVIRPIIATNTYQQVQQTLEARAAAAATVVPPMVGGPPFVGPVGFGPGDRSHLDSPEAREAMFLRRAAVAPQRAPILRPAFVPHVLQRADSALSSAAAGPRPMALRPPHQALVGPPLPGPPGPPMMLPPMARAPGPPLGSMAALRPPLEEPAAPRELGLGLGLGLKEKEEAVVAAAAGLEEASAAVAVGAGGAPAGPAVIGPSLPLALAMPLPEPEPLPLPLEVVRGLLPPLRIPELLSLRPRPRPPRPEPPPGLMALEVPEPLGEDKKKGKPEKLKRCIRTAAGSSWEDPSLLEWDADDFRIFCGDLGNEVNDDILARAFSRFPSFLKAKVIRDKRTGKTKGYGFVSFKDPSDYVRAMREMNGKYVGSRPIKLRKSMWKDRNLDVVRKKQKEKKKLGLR

[2] = target: T2, HCFC2 (human) (UniProt Q9Y5Z7)
T2 sequence: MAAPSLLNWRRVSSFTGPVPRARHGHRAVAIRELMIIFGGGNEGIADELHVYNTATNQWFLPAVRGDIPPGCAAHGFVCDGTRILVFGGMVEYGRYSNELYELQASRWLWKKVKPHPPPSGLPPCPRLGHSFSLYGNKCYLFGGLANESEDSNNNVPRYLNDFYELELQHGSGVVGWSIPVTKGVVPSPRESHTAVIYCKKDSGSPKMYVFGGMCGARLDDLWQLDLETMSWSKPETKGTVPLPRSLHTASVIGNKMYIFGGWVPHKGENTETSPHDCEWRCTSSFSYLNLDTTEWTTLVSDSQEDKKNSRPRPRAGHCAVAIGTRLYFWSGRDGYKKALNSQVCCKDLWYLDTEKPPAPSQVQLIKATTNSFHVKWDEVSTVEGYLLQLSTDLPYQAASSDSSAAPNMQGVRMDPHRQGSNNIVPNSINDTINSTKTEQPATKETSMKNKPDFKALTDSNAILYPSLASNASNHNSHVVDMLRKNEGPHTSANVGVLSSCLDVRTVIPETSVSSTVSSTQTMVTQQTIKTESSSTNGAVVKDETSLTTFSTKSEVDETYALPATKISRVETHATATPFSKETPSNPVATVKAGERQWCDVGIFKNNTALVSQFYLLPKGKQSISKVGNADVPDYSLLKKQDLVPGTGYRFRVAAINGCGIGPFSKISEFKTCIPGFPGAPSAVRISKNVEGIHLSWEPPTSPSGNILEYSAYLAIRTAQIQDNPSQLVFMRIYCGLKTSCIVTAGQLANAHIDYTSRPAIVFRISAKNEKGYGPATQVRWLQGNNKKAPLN

[3] = target: T3, BCAR3 (human) (UniProt O75815)
T3 sequence: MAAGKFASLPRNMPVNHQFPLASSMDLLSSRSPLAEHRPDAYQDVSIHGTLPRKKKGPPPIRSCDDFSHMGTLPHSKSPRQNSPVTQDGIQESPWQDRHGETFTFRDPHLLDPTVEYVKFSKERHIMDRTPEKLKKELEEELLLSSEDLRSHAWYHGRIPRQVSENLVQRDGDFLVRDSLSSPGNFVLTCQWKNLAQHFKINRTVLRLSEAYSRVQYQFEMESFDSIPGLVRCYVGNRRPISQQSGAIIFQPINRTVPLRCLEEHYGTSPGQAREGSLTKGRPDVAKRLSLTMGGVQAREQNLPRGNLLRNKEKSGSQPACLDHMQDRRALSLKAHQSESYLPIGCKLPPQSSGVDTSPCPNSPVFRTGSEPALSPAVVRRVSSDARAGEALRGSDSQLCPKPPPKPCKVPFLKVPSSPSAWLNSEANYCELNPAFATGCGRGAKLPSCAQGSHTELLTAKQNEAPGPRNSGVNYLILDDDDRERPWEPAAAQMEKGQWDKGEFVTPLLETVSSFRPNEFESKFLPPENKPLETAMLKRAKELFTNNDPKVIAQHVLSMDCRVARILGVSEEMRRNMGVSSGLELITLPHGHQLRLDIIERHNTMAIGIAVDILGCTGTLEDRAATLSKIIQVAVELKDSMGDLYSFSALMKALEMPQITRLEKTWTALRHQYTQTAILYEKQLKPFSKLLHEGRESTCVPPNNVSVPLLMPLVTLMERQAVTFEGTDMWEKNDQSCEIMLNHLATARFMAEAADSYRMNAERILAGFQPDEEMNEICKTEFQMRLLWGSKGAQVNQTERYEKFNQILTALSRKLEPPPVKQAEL

[4] = target: T4, MAGEB1 (human) (UniProt P43366)
T4 sequence: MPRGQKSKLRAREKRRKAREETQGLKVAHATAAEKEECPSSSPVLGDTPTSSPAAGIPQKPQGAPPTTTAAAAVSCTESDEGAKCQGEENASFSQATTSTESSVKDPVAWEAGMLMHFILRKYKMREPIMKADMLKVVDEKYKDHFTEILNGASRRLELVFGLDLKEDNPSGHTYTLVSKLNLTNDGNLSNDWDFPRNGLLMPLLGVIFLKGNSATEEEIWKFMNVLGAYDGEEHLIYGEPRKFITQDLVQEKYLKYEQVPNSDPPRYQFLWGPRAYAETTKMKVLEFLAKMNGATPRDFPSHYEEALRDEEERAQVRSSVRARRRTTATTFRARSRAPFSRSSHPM

Measured: binding

linear ubiquitin chain assembly complex (LUBAC), purified as HIS-tagged HOIP with the subunit HOIL-1, biotin-labelled (from UniProt Q96EP0 1-1072; Q9BYM8 1-510)
binds: all assays above
